In patent publication US20150361165A1 (SYDDANSK UNIVERSITET, published 2015):
Results are given in words; binding and its absence hold for the method and conditions named. Some results given as binding are weak or reduced against the parent protein; the word gives no strength.

Key:
[1] = biological target: T1, recombinant MFAP4 (rMFAP4), wild-type (human) (UniProt P55083); assay: ELISA, antibody as capture
T1 sequence (looked up): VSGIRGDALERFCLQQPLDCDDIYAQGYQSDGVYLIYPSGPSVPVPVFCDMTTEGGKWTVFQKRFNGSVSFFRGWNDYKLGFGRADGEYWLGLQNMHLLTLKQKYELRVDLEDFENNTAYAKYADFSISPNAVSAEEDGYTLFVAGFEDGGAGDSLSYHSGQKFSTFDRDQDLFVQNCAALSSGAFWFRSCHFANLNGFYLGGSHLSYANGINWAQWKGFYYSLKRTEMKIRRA

[2] = biological target: T1, recombinant MFAP4 (rMFAP4), wild-type (human); assay: ELISA

B1: HG-HYB 7-5 (antibody, V domains shown)
VH: EVQLQQSGPELVKPGASVKLSCKTSGYTFTSYDMNWVKQRPGQGLEWIGWIFPRDGSTKFNEKFKGKATLTVDTSSTTAYMELHSLTSEDSAVYFCARAEIFFDYGFDYWGQGTTLTVSS
VL: DIVMTQSTALMAASPGEKVTITCSVSSSISSSNLHWYQQKSETSPKSWIYGTSNLASGVPGRFSGSGSGTSYSLTISSVEAEDAATYYCQQWSSYPLTFGGGTKLEIK
binding [1]: binds

B2: HG-HYB 7-14 (antibody, V domains shown)
VH: EVKVVESGGGLVQPGGSLRLSCATSGFTFSDFYMEWVRQPPGKRLEWIAASRNKANDYTTEYSASVKGRFIVSRDTSQSILYLQLNALRAEDTAIYYCARNYYDSSYWYFDVWGAGTTVTVSS
VL: DIVLTQSPSYLAASPGETITINCRASKSISKYLAWYQERPGKTNKLLIYSGSTLQSGIPSRFSGSGSGTDFTLTISSLEPEDFAMYYCQQHNEYPFTFGAGTKLELK
notes: Monoclonal antibody raised in MFAP4-deficient C57BL/6N mice against rMFAP4; also called FITC-anti-MFAP4 (HG-HYB 7-14)
binding [2]: binds
